Source: publication PMC5584168
Results are given in words; binding and its absence hold for the method and conditions named. Binding seen in cells or lysates may run through a third protein. Some results given as binding are weak or reduced against the parent protein; the word gives no strength. Tags and fused reporters may be left off the sequences shown.

Target: T1, GST-Sli15 (S. cerevisiae) (UniProt P38283)
T1 sequence: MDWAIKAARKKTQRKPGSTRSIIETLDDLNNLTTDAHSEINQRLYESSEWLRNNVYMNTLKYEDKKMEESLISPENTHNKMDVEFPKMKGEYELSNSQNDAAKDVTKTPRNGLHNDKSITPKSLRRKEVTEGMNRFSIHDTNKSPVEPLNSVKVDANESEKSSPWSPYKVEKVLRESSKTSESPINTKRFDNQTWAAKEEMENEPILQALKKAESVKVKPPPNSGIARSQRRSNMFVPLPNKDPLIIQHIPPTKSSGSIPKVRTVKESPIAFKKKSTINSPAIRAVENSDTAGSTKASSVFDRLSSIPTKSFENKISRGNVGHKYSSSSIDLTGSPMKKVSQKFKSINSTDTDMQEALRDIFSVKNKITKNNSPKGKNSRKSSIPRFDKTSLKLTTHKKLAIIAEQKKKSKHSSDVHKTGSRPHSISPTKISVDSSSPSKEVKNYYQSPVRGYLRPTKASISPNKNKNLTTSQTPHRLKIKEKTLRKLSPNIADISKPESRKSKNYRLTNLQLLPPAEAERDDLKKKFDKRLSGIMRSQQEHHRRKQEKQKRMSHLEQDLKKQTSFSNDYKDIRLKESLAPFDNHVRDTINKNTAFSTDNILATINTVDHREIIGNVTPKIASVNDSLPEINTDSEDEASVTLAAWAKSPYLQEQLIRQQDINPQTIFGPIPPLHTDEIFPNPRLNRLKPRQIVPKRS
Assay: pull-down; GST-Sli15 immobilized on glutathione beads incubated with yeast extract, 4°C, 45 min, yeast lysis buffer (20 mM Tris pH 7.5, 100 mM NaCl, 1 mM DTT, 0.1% Triton X-100, 1 mM EDTA); anti-c-Myc Western blot; only the target purified

binding: binds
B1: full-length She1-13myc (protein, UniProt P38200 1-338)
chain: MNDKLQEEHNEKDTTSQINGFTPPHMSIDFHSNNNSNIIETIGVSKRLGNSVLSELDSRASSKFEFLKDQSEQQYNGDKNNEPKSGSYNINEFFQAKHDSQFGQMESLDTHYTLLHTPKRKSQHAIPQDRSDSMKRSRPSRSIPYTTPVVNDITRRIRRLKLRNSLVNGNDIVARARSMQANSNINSIKNTPLSKPKPFMHKPNFLMPTTNSLNKINSAHRNTSSSSTASSIPRSKVHRSISIRDLHAKTKPVERTPVAQGTNSQLKNSVSVFDRLYKQTTFSRSTSMNNLSSGTSAKSKEHTNVKTRLVKSKTSGSLSSNLKQSTATGTKSDRPIWR
